Assay results taken from PubChem BioAssay AID1347075 (National Center for Advancing Translational Sciences (NCATS), 2019).
“And” between values parts separate entries of the source, which are not always exact repeats. Identical values can stand only once. Screen size: about 400,000 compounds; about 5,500 (1.4%) were called active. Inconclusive results, whose numbers are uncertain, are shown with a selection of clear calls. The call rests on the fitted dose curve; in most records, active means well fitted cell-killing curve with a large enough effect; inconclusive means small, poorly fitted or top-dose-only effect, or effect the other way; inactive means flat fitted curve, though single readings scatter. Potencies of inconclusive entries are doubtful fits and often do not repeat.

Assay: qHTS assay for MDR1-selective chemotherapeutics: Primary screen using the parental adenocarcinoma cell KB-3-1; further: nearly all actives have a fitted effect of over 60% in size
Conditions: KB-3-1 viability, CellTiter-Glo ATP luminescence, 72 h; activity change, negative = cytotoxic: at 46.1 µM (top of the series)
Outline: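 72 h, 37 °C compound treatment of KB-3-1 parental cells; CellTiter-Glo added, 10 min, luminescence read. Data corrected against DMSO-only plates and normalized before curve fitting.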
On the % scale 0 is the no-effect control and ±100 the full control effect; potency means the concentration at half of the fitted maximal effect.

| SMILES | Potency | activity change, negative = cytotoxic |
| --- | --- | --- |
| CC(C)NC(=O)C1C(c2ccc(C(F)(F)F)cc2)=Nc2ccccc2N1C(=O)c1ccccc1 (centres undefined) | inconclusive: 29.1 µM [cytotoxic, single point] |  |
| CCc1nc(Nc2cccc(O)c2)c2oc3ccccc3c2n1 | inconclusive: 29.1 µM [cytotoxic, single point] |  |
| CCCCCOC(=O)c1ccc(Nc2nc(C(=O)OCC)nc3ccccc23)cc1 | inactive |  |
| C=C[C@@H]1c2ccccc2N(S(=O)(=O)c2ccc(C)cc2)[C@H](c2ccccc2)C1(C#N)C#N | inconclusive: 18.4 µM [cytotoxic, single point] and inconclusive: 16.4 µM [cytotoxic, single point] |  |
| CCOc1ccccc1NC(=O)C1CC(=O)n2ncnc2N1 (centres undefined) | inconclusive: 18.4 µM [cytotoxic, single point] |  |
| O=C(Cn1cnc2c(cnn2-c2ccc(F)cc2)c1=O)NCc1ccco1 | active: 9.2 µM |  |
| O=C(Nc1ccc(N2CCCC2)cc1)c1cccc(Cl)c1Cl | inconclusive: 29.1 µM [cytotoxic, single point] |  |
| COc1cccc(NC(=O)Cn2c(=O)n(-c3ccccc3)c(=O)c3sccc32)c1 | inconclusive: 29.1 µM [cytotoxic, single point] |  |
| O=C(NCc1noc2ccccc12)Nc1ccc(F)cc1F | inactive |  |
| COc1ccc(OC)c(-c2csc(NC(=O)Cc3ccccc3F)n2)c1 | inactive |  |
| O=C(CCn1cnc(-c2ccccc2)c1-c1ccccc1)N/N=C/c1ccccc1O | inconclusive: 16.4 µM [cytotoxic, single point] |  |
| CCOC1=C/C(=C/c2c(N)n3nc(CC(=O)N4CCCC4)sc3nc2=O)C=CC1=O |  | inconclusive: 2.59% |
| C=CCOc1c(Br)cc(CNc2ccc(NC(=O)C(C)C)cc2)cc1OCC | inconclusive: 20.6 µM [cytotoxic, single point] |  |
| O=S(=O)(c1ccc(Cl)c(Cl)c1)c1snnc1-c1ccccc1 | active: 5.17 µM |  |
| CC(=O)Nc1nonc1-c1nc2ccccc2n1Cc1ccccc1 | active: 14.6 µM |  |
| C=CCn1c(-c2ccccn2)n[nH]c1=S | inactive |  |
| CCCOc1ccccc1C1CC(=O)Nc2cc3c(cc21)OCCO3 (centres undefined) | active: 1.3 µM |  |
| Cn1c(SCC#N)nc2ccccc2c1=O | inconclusive: 23.1 µM [rising, partial curve, poor fit] |  |
| CCOc1ccc(CCN2C(=S)N([C@@H](CC(C)C)CN3CCCC3CN3C(=S)NC[C@@H]3CC(C)C)C[C@@H]2Cc2ccc(O)cc2)cc1 (some centres undefined) | inconclusive: 29.1 µM [cytotoxic, single point] |  |
| O=S(=O)(c1ccccc1)N(c1ccccc1)S(=O)(=O)c1ccccc1 | inconclusive: 16.4 µM [cytotoxic, partial curve, poor fit] |  |
| COC(=O)C1=CN(c2ccccc2OC)C(N)=C(C#N)C1c1cccc([N+](=O)[O-])c1 (centres undefined) | active: 4.61 µM |  |
| Cc1cc(OCC(=O)Nc2ccncc2)cc(C)c1Br | inconclusive: 11.6 µM [cytotoxic, partial curve, poor fit] |  |

| SMILES | Potency | activity change, negative = cytotoxic |
| --- | --- | --- |
| Cc1ccc(S(=O)(=O)N2CCOCC2)cc1C(=O)N(C)CCOc1ccc(Cl)cc1 | inconclusive: 13 µM [cytotoxic, partial curve, poor fit] |  |
| COc1cccc(-c2cc(C(F)(F)F)c(C#N)c(=O)[nH]2)c1 | inactive |  |
| CCCCCCCC(=O)NNC(=O)c1c(O)c2ccccc2n(CCC)c1=O | inconclusive: 6.51 µM [rising, full curve, poor fit] |  |
| C[C@@H]1COC(=O)[C@@H](CC(=O)OC(C)(C)C)C/C=C\C[C@H](CC(=O)N(CCO)Cc2ccccc2)C(=O)N1 | inactive |  |
| CC(C)(C)n1nc(Cc2cccc3ccccc23)c2c(N)ncnc21 | inconclusive: 29.1 µM [cytotoxic, single point] |  |
| CCOC(=O)c1c(C)[nH]c(C(=O)CN2C(=O)NC3(CCCC3)C2=O)c1C | inactive |  |
| Cc1cccc(CN2CCN(C3CN(Cc4cn(Cc5cccc(Cl)c5)nn4)S(=O)(=O)C3)CC2)c1 (centres undefined) | inconclusive: 20.6 µM [cytotoxic, single point] |  |
| CCCC1NC(=O)c2cc3ccccc3cc2-n2c1nc1cc(Cl)ccc1c2=O (centres undefined) | active: 18.4 µM |  |
| CC(C)OC(=O)/C(=C\c1ccccc1)NC(=O)c1ccccc1 | inactive |  |
| Cc1ccc(NC(=O)CN(C)CC(=O)Nc2cccc(F)c2)cc1S(=O)(=O)N1CCCCCC1 | inconclusive: 29.1 µM [cytotoxic, single point] |  |
| Clc1ccc(C2=C3CCCCn4c(-c5ccccc5)c[n+](c43)C2)cc1 | inconclusive: 29.1 µM [cytotoxic, single point] |  |
| Cc1cc(=O)oc2cc(NC(=O)C(C)Oc3ccccc3)ccc12 (centres undefined) | inconclusive: 6.51 µM [rising, partial curve, poor fit] |  |
| COc1cccc(C(C)=C2SC(=S)NC2=O)c1 | inactive |  |
| COCCCNC(=O)C(=O)Nc1ccc2c(c1)N(S(=O)(=O)c1cccs1)CCC2 | active: 1.16 µM |  |
| CCCCc1c(C)nc2c(-c3ccc(Cl)cc3)c(C)[nH]n2c1=O | inconclusive: 3.26 µM [cytotoxic, full curve] |  |
| Cc1ccc(S(=O)(=O)N(CC(=O)NCCSCc2ccco2)c2cc(C)ccc2C)cc1 | inconclusive: 35.5 µM [cytotoxic, single point] |  |
| CC(C)(C)NC(=O)CN(C(=O)c1snc(C(=O)NC2CCCCC2)c1N)c1ccccc1F | inconclusive: 18.4 µM [cytotoxic, single point] |  |
| NC(N)=NC1=NC(=O)C(Cc2ccccc2)S1 (centres undefined) | inactive |  |
| CCC(c1nnnn1CCc1ccccc1)N(Cc1ccco1)Cc1cc2cccc(C)c2[nH]c1=O (centres undefined) | inconclusive: 23.1 µM [cytotoxic, single point] |  |
| Cc1cc(/C=N/n2c(COc3ccccc3)nc3ccccc3c2=O)c(O)c([N+](=O)[O-])c1 | inconclusive: 29.1 µM [cytotoxic, single point] |  |
| COC(=O)c1sccc1NC(=O)COc1ccc(C)cc1 | inactive |  |
| O=C(Nc1ccc2c(c1)OCO2)c1cc(C2CC2)on1 | inconclusive: 29.1 µM [cytotoxic, single point] |  |
